Results taken from patent US9173935B2, “Phospholipid drug analogs” (Telormedix SA, priority 2010, dated 2015).
Read-outs that look alike come from different tables or passages of the source.

Settings: human, plasma, 4.16 μM

With `CCN(CC)CC(=O)Nc1c(C)cccc1C` [Lidocaine, reference compound] the “% remaining” value (0 h) was 100%, the “% remaining” value (1 h) was 107.1 ± 7.7% and the “% remaining” value (5 h) was 105.1 ± 3.3%.
